In all, about 360,000 compounds went through this assay and about 7,500 (2.1%) were called active. Inconclusive means that the source gave no clear call. Such entries were picked first, then a sample of the others. Calls come from the whole dose curve; as a rule, active = well fitted inhibition curve with a large enough effect; inconclusive = small, poorly fitted or top-dose-only effect, or effect the other way; inactive = flat fitted curve, though single readings scatter. Potencies of inconclusive entries are doubtful fits and often do not repeat.
Experiment: Nrf2 qHTS screen for inhibitors; note: nearly all actives have a fitted effect of over 60% in size
Settings: A549 ARE-Fluc reporter, luciferase luminescence, 18-24 h; activity change, negative = inhibition: at 46 µM (top of the series)
Summary of the method: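 A549 ARE_Fluc cells (5000/well, 5% FBS OPTI-MEM) pre-incubated 2 h, then treated with compounds 18-24 h at 37C/5% CO2 in concentration-response. CellTiter-Fluor viability read first; BugLite luciferase luminescence after 15 min at room temperature gives Nrf2 activity.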
With `N/C(=N\OC(=O)c1ccc(Cl)c(Cl)c1)c1ccccn1` the Potency was inconclusive: 2.06 µM [activator, full curve].
In the case of `CC1=CC(=C2C(=O)c3ccccc3C2=O)C=C(C)O1`, the Potency is reported as inconclusive: 9.2 µM [falling, partial curve, poor fit].
In the case of `CC(=O)Nc1ccc(C(=O)COC(=O)CCS(=O)(=O)c2ccccc2)cc1`, the Potency is reported as “inactive”.
In the case of `O=S(=O)(c1cccs1)N1CCCc2cccc(O)c21`, the Potency is reported as inconclusive: 29.1 µM [activator, single point].
With `Cc1cccc(C(=O)N/N=C/c2ccccn2)c1` the Potency was inconclusive: 29.1 µM [falling, single point].
In the case of `Cc1nc(-c2ccccc2)sc1-c1ccn[nH]1`, the Potency is reported as inconclusive: 1.84 µM [activator, full curve].
For `Cc1ccc(S(=O)(=O)Nc2ccc(NC(=O)Nc3cccc(C(F)(F)F)c3)cc2)cc1`, the Potency was active: 18.4 µM.
For `Cn1cc(/C=C/c2cc[n+](C)cc2)c2cc(Cl)ccc21`, the Potency was active: 10.3 µM.
For `CCOC(=O)c1csc(NC(=O)CSc2nnnn2-c2ccc3c(c2)OCCO3)n1`, the Potency was inconclusive: 11.6 µM [falling, partial curve, poor fit].
For `COc1ccc(-n2c(=O)c3c4c(sc3n(Cc3ccc(C)cc3C)c2=O)CCC4)c(OC)c1`, the activity change, negative = inhibition was inactive: -19.6% [at 9.27 µM].
For `CCC(CC)C(=O)OCc1cc(=O)n2nc(C3CCCCC3)sc2n1`, the Potency was inconclusive: 29.1 µM [falling, single point].
With `Cc1ccc(-c2c(C(=O)N3CCN(c4cccc(C)c4)C(C)C3)oc(=O)c3ccccc23)cc1` (stereo not drawn) the Potency was inconclusive: 20.6 µM [falling, single point].
In the case of `CCOC(=O)c1c(C)[nH]c(C)c1S(=O)(=O)N(C)CC(=O)N1CCN(c2ccc(Cl)cc2)CC1`, the Potency is reported as inconclusive: 29.1 µM [falling, single point].
For `NS(=O)(=O)c1ccc(NCc2cc(Cl)ccc2OCc2ccccc2F)cc1`, the Potency was inconclusive: 29.1 µM [falling, single point].
With `O=[N+]([O-])c1ccc(Oc2ccc(S(=O)(=O)N3CCCCC3)cc2)cc1` the Potency was inconclusive: 29.1 µM [falling, single point].
For `CC(C)(C)OC(=O)N1CCC(c2c(C(=O)NCCc3ccsc3)cnn2-c2ccccc2Cl)CC1`, the Potency was “inactive”.
For `COc1ccc(S(=O)(=O)N(C)c2ccc(C(=O)N3CCN(c4ccccc4)CC3)cc2)cc1OC`, the Potency was inconclusive: 29.1 µM [falling, single point].
With `CCOC(=O)N1C(=O)C2(CCCCC2)N(c2ccccc2Cl)C1=S` the Potency was “inactive”.

Source: PubChem BioAssay AID504444 (National Center for Advancing Translational Sciences (NCATS), 2011)
% is set by controls: 0 for no effect and ±100 for the full control effect; potency is the fitted concentration of half-maximal effect.
